Data: PubChem BioAssay AID587 (National Center for Advancing Translational Sciences (NCATS), 2007)
About 35 (0.06%) of roughly 59,000 compounds were called active. This list was built around the results that the source calls inconclusive (neither active nor inactive); the mix of calls is not that of the screen. Cut-off read from the data, not from the text of the source: active = max dye-equivalent concentration above about 10 nM; inconclusive = between about 1.1 nM and that limit; inactive = weaker than that.

Test: qHTS Assay for Spectroscopic Profiling in Texas Red Spectral Region
Conditions: Compound fluorescence, Texas Red channel, 547/618 nm; stronger effect = higher value
In short: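 Dye-equivalent concentrations come from scaling compound signal (ex 547, em 618 nm) to six Texas Red standard concentrations run on every plate, after 15 min room-temperature incubation in pH 8.0 Tris (100 mM).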

Compound	max dye-equivalent concentration
CN=C(N)NCCC[C@H](N)C(=O)O	inconclusive: 1.1 nM
O=c1n(Cc2ccccc2)c2cc(Cl)cnc2n1Cc1ccccc1	inconclusive: 1.6 nM
COc1ccccc1N1CCN(C2=CC(=O)CCC2)CC1	inconclusive: 1.1 nM
C=C1CSc2nc(=O)c3c(C)c(C)sc3n21	inconclusive: 1.5 nM
COc1ccc(CCNC(=O)Cn2nnc(-c3ccc(N4CCOCC4)cc3)n2)cc1OC	inconclusive: 1.6 nM
CCOc1ccc(NC(C)c2cc(Cl)ccc2O)cc1 (stereo not drawn)	inconclusive: 1.6 nM
CCN[C@@H]1C[C@H](N)[C@H](O[C@H]2OC(CN)=CC[C@H]2N)[C@@H](O)[C@H]1O[C@H]1OC[C@@](C)(O)[C@@H](NC)[C@@H]1O	inactive
Cn1c(=O)c(=O)n(C)c2cc(S(=O)(=O)N3CCc4ccccc43)ccc21	inconclusive: 1.5 nM
N#Cc1c(C(F)(F)F)cc(-c2ccco2)nc1SCc1ccccn1	inconclusive: 1.4 nM
CCOC(=O)c1cc2occc2n1CC(=O)N1CCN(C(=O)c2ccco2)CC1	inconclusive: 1.5 nM
C=CCN(CC=C)C(=O)Nc1cc(Cl)ccc1OC	inconclusive: 1.5 nM
CC(C)c1nc2oc3c(N4CCN(C)CC4)ncnc3c2c2c1CCC2	inactive
O=C(CN(C(=O)CCC(=O)Nc1nccs1)c1ccccc1F)NCC1CCCO1 (stereo not drawn)	inconclusive: 1.1 nM
O=C(N1CCOCC1)N1c2ccccc2CC(N2CCOCC2)c2ccccc21 (stereo not drawn)	inconclusive: 1.4 nM
C/C=C/c1ccc(OCCN2C(=O)NC(C)(C)C2=O)c(OC)c1	inconclusive: 2 nM
O=S(=O)(c1cnc[nH]1)N1CCc2ccccc21	inconclusive: 5.9 nM
Cc1cccc(N/C(N)=N/c2nc3c(c(=O)[nH]2)CCCC3)c1	inconclusive: 1.3 nM
CCOC(=O)C1C(=O)NC(N2CCc3ccccc32)=NC1c1ccccc1 (stereo not drawn)	inconclusive: 1.5 nM
Cc1occc1-c1nnc(SCC(=O)Nc2ccccc2)n1C(C)c1ccccc1 (stereo not drawn)	inconclusive: 1.2 nM
CCc1c(C)nc2ncnn2c1N1CCCC(C(=O)NCc2ccc3c(c2)OCO3)C1 (stereo not drawn)	inconclusive: 1.7 nM
COC(=O)c1ccc(OC)c(CSc2nnc(COc3ccc(Cl)cc3)o2)c1	inconclusive: 1.9 nM
N#CCCn1cc(C(CC(=O)c2ccccc2)C(=O)O)c2ccccc21 (stereo not drawn)	inconclusive: 1.7 nM
CCCCOC(=O)CSC1=C(C#N)C(c2ccccc2OCC)C(C#N)C(=O)N1 (stereo not drawn)	inconclusive: 1.2 nM

Sorted by length of the SMILES (high to low): some entries from above
Compound	max dye-equivalent concentration
COC(=O)c1ccc(OC)c(CSc2nnc(COc3ccc(Cl)cc3)o2)c1	inconclusive: 1.9 nM
O=C(N1CCOCC1)N1c2ccccc2CC(N2CCOCC2)c2ccccc21 (stereo not drawn)	inconclusive: 1.4 nM
O=c1n(Cc2ccccc2)c2cc(Cl)cnc2n1Cc1ccccc1	inconclusive: 1.6 nM
